{
  "sequences": {"note": "Chains of the proteins cited; added tags and fusions are not shown.", "UniProt Q8C6B2": "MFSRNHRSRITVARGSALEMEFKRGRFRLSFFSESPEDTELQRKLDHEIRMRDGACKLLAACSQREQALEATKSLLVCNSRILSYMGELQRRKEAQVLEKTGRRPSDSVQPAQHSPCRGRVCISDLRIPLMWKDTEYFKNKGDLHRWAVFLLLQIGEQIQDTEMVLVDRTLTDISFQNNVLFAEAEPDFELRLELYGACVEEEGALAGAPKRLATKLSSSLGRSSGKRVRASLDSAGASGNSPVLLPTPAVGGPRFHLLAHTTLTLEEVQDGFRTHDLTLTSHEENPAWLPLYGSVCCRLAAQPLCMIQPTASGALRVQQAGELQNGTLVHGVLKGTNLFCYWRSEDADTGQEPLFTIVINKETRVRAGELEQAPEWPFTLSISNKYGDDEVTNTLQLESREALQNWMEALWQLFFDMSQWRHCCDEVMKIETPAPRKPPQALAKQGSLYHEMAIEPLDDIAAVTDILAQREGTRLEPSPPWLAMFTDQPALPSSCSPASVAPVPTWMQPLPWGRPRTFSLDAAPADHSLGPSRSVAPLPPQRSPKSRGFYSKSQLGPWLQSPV", "UniProt Q62159": "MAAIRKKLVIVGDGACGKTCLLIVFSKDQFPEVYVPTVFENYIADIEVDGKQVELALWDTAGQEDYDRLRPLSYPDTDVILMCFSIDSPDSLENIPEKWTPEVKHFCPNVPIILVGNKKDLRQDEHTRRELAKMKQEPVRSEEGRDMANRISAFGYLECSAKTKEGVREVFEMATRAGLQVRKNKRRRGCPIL"},
  "source": "paper PMC6115833",
  "key": {"rhotekin [1]": {"target": "rhotekin (UniProt Q8C6B2)", "assay": "pull-down; rhotekin beads incubated with lysate of MLO-Y4 cells (serum starved overnight, PMT 1 nM for 4 h); GST-fish buffer (10% glycerol, 50 mM Tris-HCl pH 7.4, 100 mM NaCl, 2 mM MgCl2, 1% NP-40), 1 h at 4 °C; bound RhoC detected by immunoblot; only the target purified"}, "rhotekin [2]": {"target": "rhotekin (UniProt Q8C6B2)", "assay": "condition: only cells untreated (con) or treated with inactive PMT C1165S (1 nM) instead of PMT; pull-down; as a1, but lysate of MLO-Y4 cells left untreated (con) or treated with the inactive mutant PMT C1165S (1 nM, 4 h); only the target purified"}},
  "note": "No constants are given. Whether binding was seen depends on the method and setting. Binding seen in cells or lysates may run through a third protein. Some binding calls cover weakened binding; strength is not graded here.",
  "data": [
    {"substance": "RhoC (from UniProt Q62159 1-193)", "values": [
      {"measurement": "binding", "setting": "rhotekin [1]", "result": "binds"},
      {"measurement": "binding", "setting": "rhotekin [2]", "result": "no binding"}
    ]}
  ]
}
